PubChem BioAssay AID652259 | Drosophila RNAi Screening Center, 2013

Assay: 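Knock-downs that push a Wingless-driven reporter up or down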 (primary screen)
Cell system: Drosophila clone 8 imaginal disc epithelial cells
Reagent: long dsRNA against Drosophila genes
Challenge: pathway stimulated by co-transfected Wingless expression plasmid
Measured: 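Firefly luciferase from a tcf-site Wingless reporter, measured alongside co-transfected Renilla luciferase that tracks transfection; pathway stimulated by a Wingless plasmid; the firefly-to-Renilla ratio is not deposited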
Scale: firefly reporter light: higher = more Wg reporter light, before normalisation; Renilla control light: higher = more transfected or surviving cells
Rule for the call: 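a knock-down is a candidate when at least two out of four statistical tests show it departing from its plate mean; one test alone signals a weak candidate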
Meaning of the calls: active = candidate regulator (raises or lowers reporter); inactive = not a candidate
The deposit covers about 22,000 reagents; this is an unselected part of those that have a named target and a result. Over the whole deposit, 233 (1.1%) were called active. 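Light values are raw, unnormalised plate reads; the ratio scores behind the reporter calls were not deposited.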 Unmarked entries are inactive. Names joined by + are all predicted targets of the reagent. Reagent sequences are not shown. The record does not give: the amount of reagent, the time to read-out, the dose of the treatment.

| gene | dsRNA | firefly reporter light, replicate 1 | firefly reporter light, replicate 2 | Renilla control light, replicate 1 | Renilla control light, replicate 2 |
| --- | --- | --- | --- | --- | --- |
| TwdlG (TweedleG) | DRSC12229 | 15332 | – | 5351 | – |
| CG9231 | DRSC11054 | 8077 | – | 2668 | – |
| BEAF-32 (Boundary element-associated factor of 32kD) | DRSC05927 | 16118 | – | 4088 | – |
| CCAP-R (Crustacean cardioactive peptide receptor) | DRSC14891 | 12612 | – | 12807 | – |
| CCAP-R (Crustacean cardioactive peptide receptor) | DRSC15967 | 22169 | – | 15899 | – |
| Ir52a (Ionotropic receptor 52a) | DRSC06262 | 6429 | – | 2122 | – |
| CG13540 | DRSC04182 | 1596 | 5815 | 340 | 2406 |
| Rab30 | DRSC03137 | 2704 | 8372 | 1021 | 3373 |
| BomS1 (Bomanin Short 1) | DRSC22678 | 7.95e5 | 7.79e5 | 2.60e5 | 2.44e5 |
| CG11906 | DRSC06096 | 7665 | – | 2877 | – |
| pip (pipe) | DRSC11382 | 10417 | – | 4374 | – |
| CG42564 | DRSC12518 | 18557 | – | 4307 | – |
| CG10651 | DRSC02086 | 1850 | 6288 | 765 | 2619 |
| CG32269 + CG32270 | DRSC08195 | 6070 | – | 2739 | – |
| Oga (O-GlcNAcase) | DRSC15901 | 2562 | 5292 | 1133 | 1548 |
| spz5 (spatzle 5) | DRSC08645 | 13425 | – | 5367 | – |
| CG34288 | DRSC13564 | 4291 | – | 2181 | – |
| gukh (GUK-holder) | DRSC14768 | 14130 | – | 3394 | – |
| gukh (GUK-holder) | DRSC15806 | 14804 | – | 4244 | – |
| gukh (GUK-holder) | DRSC15944 | 1811 | 6077 | 601 | 1916 |
| Coq9 (Coenzyme Q9) | DRSC22913 | 4.63e5 | 4.93e5 | 1.85e5 | 1.47e5 |
| CG13869 + CG11099 | DRSC06428 | 6957 | – | 2624 | – |
| CG18418 | DRSC08535 | 4824 | – | 1937 | – |
| Pp2C1 (Protein phosphatase 2C) | DRSC18699 | 2833 | 12411 | 556 | 995 |
| CG42531 | DRSC05318 | 19821 | – | 20083 | – |
| Cpr56F (Cuticular protein 56F) | DRSC07326 | 7340 | – | 2353 | – |
| CG12159 | DRSC06114 | 2377 | 6832 | 624 | 2275 |
| app (approximated) | DRSC09159 | 3248 | – | 2112 | – |
| app (approximated) | DRSC10246 | 5900 | – | 2396 | – |
| app (approximated) | DRSC10526 | 13369 | – | 3300 | – |
| Fmo-1 (Flavin-containing monooxygenase 1) | DRSC04328 | 12448 | – | 3975 | – |
| Eh (Eclosion hormone) | DRSC16660 | 22208 | – | 4089 | – |
| Lapsyn (Leucine-rich repeat activity-regulated protein at synapses) | DRSC04249 | 11904 | – | 3293 | – |
| CG3407 | DRSC00603 | 6217 | – | 4858 | – |
| Dp1 (Dodeca-satellite-binding protein 1) | DRSC07403 | 15323 | – | 4936 | – |
| homer | DRSC03547 | 6693 | – | 2581 | – |
| Ak3 (Adenylate kinase 3) | DRSC16075 | 12593 | – | 3225 | – |
| CG13796 + CG31904 | DRSC22161 | 4.48e5 | 5.28e5 | 1.90e5 | 2.20e5 |
| CG7601 | DRSC14131 | 3612 | 4308 | 1443 | 1872 |
| sev (sevenless) | DRSC20372 | 18893 | – | 9462 | – |
| ATbp ((A+T)-stretch binding protein) | DRSC20906 | 22053 | – | 6481 | – |

The list goes on (7 carried over from the part before).
| gene | dsRNA | firefly reporter light, replicate 1 | firefly reporter light, replicate 2 | Renilla control light, replicate 1 | Renilla control light, replicate 2 |
| --- | --- | --- | --- | --- | --- |
| Dp1 (Dodeca-satellite-binding protein 1) | DRSC07403 | 15323 | – | 4936 | – |
| homer | DRSC03547 | 6693 | – | 2581 | – |
| Ak3 (Adenylate kinase 3) | DRSC16075 | 12593 | – | 3225 | – |
| CG13796 + CG31904 | DRSC22161 | 4.48e5 | 5.28e5 | 1.90e5 | 2.20e5 |
| CG7601 | DRSC14131 | 3612 | 4308 | 1443 | 1872 |
| sev (sevenless) | DRSC20372 | 18893 | – | 9462 | – |
| ATbp ((A+T)-stretch binding protein) | DRSC20906 | 22053 | – | 6481 | – |
| Rsph9 (Radial spoke head protein 9) | DRSC01594 | 11620 | – | 11120 | – |
| prc (pericardin) | DRSC11385 | 6561 | – | 2919 | – |
| CG2926 | DRSC12321 | 3367 | – | 1524 | – |
| CG18327 | DRSC06722 | 5144 | – | 2200 | – |
| bc10 | DRSC11326 | 2326 | 7208 | 1330 | 3828 |
| mnd (minidiscs) | DRSC11370 | 7275 | – | 1993 | – |
| CG5346 | DRSC15778 | 47848 | – | 9239 | – |
| CG15219 | DRSC03715 | 3284 | 9185 | 1344 | 3318 |
| Isha (Insulator su(Hw) mRNA adaptor) | DRSC04456 | 10971 | – | 2761 | – |
| CG31268 | DRSC13203 | 2026 | – | 1425 | – |
| CG6424 | DRSC05936 | 14245 | – | 3448 | – |
| CG13630 | DRSC14631 | 3050 | 5634 | 1653 | 2348 |
| CG12112 | DRSC17809 | 3946 | 10636 | 1332 | 3661 |
| peb (pebbled) | DRSC18817 | 30918 | – | 9216 | – |
| CG14448 | DRSC11705 | 12696 | – | 3625 | – |
| CG14253 | DRSC14748 | 8836 | – | 2627 | – |
| myo (myoglianin) | DRSC17174 | 2459 | 6225 | 983 | 2513 |
| exp (expansion) | DRSC06313 | 7927 | – | 1304 | – |
| CG17721 | DRSC15253 | 13514 | – | 4065 | – |
| CG18135 | DRSC10295 | 5632 | – | 3418 | – |
| tacc (transforming acidic coiled-coil protein) | DRSC12019 | 3402 | – | 1335 | – |
| tacc (transforming acidic coiled-coil protein) | DRSC12388 | 8417 | 8.07e5 | 1851 | 3.64e5 |
| CG6574 | DRSC16070 | 10544 | – | 2853 | – |
| CG10959 | DRSC17769 | 4816 | 5977 | 1264 | 1658 |
| Nup54 (Nucleoporin 54kD) | DRSC07282 | 11645 | – | 2445 | – |
| Aven (Apoptosis and caspase activation inhibitor) | DRSC19693 | 16544 | – | 10741 | – |
| PIP5K59B (Phosphatidylinositol 4-phosphate 5-kinase 59B) | DRSC04290 | 7349 | – | 2226 | – |
| PIP5K59B (Phosphatidylinositol 4-phosphate 5-kinase 59B) | DRSC04403 | 3144 | 9819 | 692 | 2812 |
| CG4424 | DRSC15576 | 1815 | 5681 | 947 | 1732 |
| CngB (Cyclic nucleotide-gated ion channel subunit B) | DRSC04297 | 18240 | – | 5089 | – |
| fd96Ca (forkhead domain 96Ca) | DRSC16946 | 20401 | – | 14842 | – |
| Egfrap (EGFR adaptor protein) | DRSC09963 | 1012 | 7946 | 1191 | 2993 |
| Egfrap (EGFR adaptor protein) | DRSC09964 | 836 | 6202 | 1132 | 3189 |
